According to the supplement of paper PMC12889115:
The other results are listed elsewhere or left out. Values are raw readings; no control value is given beside them.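 First-pass screen: polymyxin B was added at a level that permeabilizes the Salmonella outer membrane while sparing the inner membrane. DMSO wells, with and without polymyxin B, defined maximum growth. Because plates differed from one another, each plate's data were ranked separately and the compounds with the lowest OD600 were carried forward as hits.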

System: Salmonella enterica serovar Typhimurium SL1344
Assay: bacterial growth OD600 after 18 h with compound and polymyxin B; higher = more bacterial growth (less inhibition)
Details: 50 µM, Mueller-Hinton broth

SMILES | bacterial growth OD600 (polymyxin B 1 µg/mL) | bacterial growth OD600 (polymyxin B 0.75 µg/mL)
COc1ccc(-c2noc(CN(C)Cc3cccc(C(F)(F)F)c3)n2)c(OC)c1OC | 0.849 | –
CCN(CC)C1CCN(C(=O)c2cc(COc3ccc(-n4cncn4)cc3)on2)C1 (stereo not given) | 0.886 | –
O=C(c1cccc(OC2CCN(C3CCCC3)CC2)c1)N1C[C@@H]2CCC[C@H]1C2 | 1.21 | –
CC(NC(=O)c1ccc(N2CCC(NCCCN3CCCC3=O)CC2)cc1)c1ccccc1 (stereo not given) | – | 0.858
Cc1ccc(C(=O)N(Cc2ccc(OCc3ccc4c(c3)OCO4)cc2)CC2CCCO2)s1 (stereo not given) | – | 0.001
COCc1ccc(C(=O)NCc2c(C)ncc3c2CCN(C(=O)c2cc(F)c(F)cc2F)C3)o1 | – | 0.854
Cc1nc(N2CCC(C(=O)N3CCNC(=O)C3c3cccc(F)c3)CC2)nc2ccc(C(C)C)cc12 (stereo not given) | – | 0
O=C(c1ccccc1-c1ncc[nH]1)N1CCC2(CCCN(CC3CC3)C2)C1 (stereo not given) | – | 0.841
CCOC(=O)C1(CCOc2ccccc2)CCN(Cc2cccc3nccnc23)CC1 | – | 0.681
COCCCN1C(=O)CC(CC(=O)N2CCCC(c3ccccc3C)C2)(c2ccccc2Cl)C1=O (stereo not given) | – | -0.043
O=C(CCC1(Cc2ccc(Cl)cc2)CCC(=O)N1)NCc1ccc(C(F)(F)F)cc1 (stereo not given) | – | 0.002
CCOC(=O)C1(Cc2ccccc2C(F)(F)F)CCN(Cc2cnn(C(C)C)c2)CC1 | 0.857 | –
CN(Cc1nc2ccccc2s1)C(=O)CCC1(Cc2ccc(F)cc2)CCC(=O)N1 (stereo not given) | – | 0.796
CC(CNC(=O)c1coc(CN2CCN(c3ncccn3)CC2)n1)c1ccccc1 (stereo not given) | 0.864 | –
CCC1CN(CC(=O)NCc2scnc2-c2ccccc2)Cc2cc(OC)ccc2O1 (stereo not given) | – | 0.794
CCOC(=O)C1(CCCc2ccccc2)CCCN(C(=O)CCc2cn[nH]c2)C1 (stereo not given) | 0.832 | –
O=C(NC1CCCc2nc(N3CCC(CO)CC3)ncc21)c1cccs1 (stereo not given) | – | 0.811
Cc1ccccc1OCC1CCCN(Cc2nc(Cc3ccccc3)no2)C1 (stereo not given) | 0.807 | –
CSCCC(=O)N1CCC2(CCCN(Cc3cccc(F)c3F)C2=O)C1 (stereo not given) | 0.976 | –
CCO[C@H]1[C@H](NC(=O)CC)c2ccccc2C12CCN(C(=O)c1cc(OC)nc3ccccc13)CC2 | – | 0.818
CCOC(=O)CCNC(=O)N(C)CC1CCCN(CCc2ccc(OC)cc2)C1 (stereo not given) | 0.982 | –
CN(Cc1nccn1C)c1nc2nonc2nc1NCc1cccs1 | 0.921 | –
CCOC(=O)C1(Cc2cccc(Cl)c2)CCCN(C(=O)c2cccc3nccnc23)C1 (stereo not given) | 0.874 | –
CC(C)C1CCN(CC2(O)CCCN(Cc3ccc(F)cc3)C2=O)CC1 (stereo not given) | 0.9 | –
Cc1nc(N2CCC(C(=O)NCC3CCN(C4CCCC4)CC3)CC2)nc2ccc(C(C)C)cc12 | – | 0.856
CNc1cc(C(=O)NCc2cccnc2Oc2ccccc2OC)ccn1 | – | 0.945
COc1cc(CC2(CCC(=O)N(C)Cc3nc4ccc(F)cc4[nH]3)CCC(=O)N2)ccc1F (stereo not given) | – | 0.761
CCCCn1c(CN(C)Cc2ccccc2OC)cnc1S(=O)(=O)CC1CCC1 | 0.911 | –
COc1ccc(Cl)cc1NC(=O)CCC1CCCN(C(=O)c2csc(C)n2)C1 (stereo not given) | 0.92 | –
CCOc1ccccc1CN1CCN(Cc2cccc(-n3cccn3)c2)CC1CCO (stereo not given) | 0.833 | –
